Where a chain is given by its changes, count along the chain named. Numbers in names are those of the source. These are yes or no findings as the source states them, for the method shown. For some assays here: Binding seen in cells or lysates may run through a third protein. Some binding calls cover weakened binding; strength is not graded here. For some assays here: Tags and fused reporters may be left off the sequences shown.
Assays:
[1] = target: TLR4 stably expressed on HEK293 cells (HEK/TLR4) (UniProt O00206); test: cell association of radiolabelled complex with HEK/TLR4 cells
[2] = target: recombinant soluble TLR4 extracellular domain (amino acids 24-634), FLAG-tagged (UniProt O00206); test: gel filtration of radiolabelled complex with TLR4ECD medium, Scatchard analysis
[3] = target: TLR4 stably expressed on HEK293 cells (HEK/TLR4) (UniProt O00206); test: cell-associated radioactivity after overnight incubation with HEK or HEK/TLR4 cells
[4] = target: TLR4 stably expressed on HEK293 cells (HEK/TLR4) (UniProt O00206); test: cell-associated radioactivity after overnight incubation with HEK/TLR4 cells (0.75 ng/ml 3H-LOS)
[5] = target: recombinant soluble TLR4 extracellular domain (amino acids 24-634), FLAG-tagged (UniProt O00206); test: ~75 pM TLR4ECD with increasing [3H]LOS:MD-2, Mr ~190,000 complex by Sephacryl S200 gel filtration
[6] = target: recombinant soluble TLR4 extracellular domain (amino acids 24-634), FLAG-tagged (UniProt O00206); test: competition of weakly labelled native complex with [3H]LOS:MD-2 for soluble TLR4ECD, gel filtration
[7] = target: recombinant soluble TLR4 extracellular domain (amino acids 24-634), FLAG-tagged (UniProt O00206); test: gel filtration (Sephacryl S200/S300) of 1 nM [3H]LOS:MD-2 with TLR4ECD medium; co-capture on Ni2+ resin and anti-FLAG M2 agarose; Mr ~190,000 complex
[8] = target: T1, TLR4 stably expressed on HEK293 cells (HEK/TLR4) (UniProt O00206 24-839, limits assumed); test: competition on HEK/TLR4 cells: excess free MD-2 against 3H-LOS:MD-2 (0.75 ng/ml), cell-associated radioactivity
T1 construct: whole, on cells; Cells from Eisai Research Institute (Yang et al., 2000) or Invivogen; also called HEK293/TLR4; cellular TLR4

The chains behind the UniProt entries cited, without tags or fusion partners. Where a name states a change or a piece, a line headed by the entry shows the natural chain unless it says otherwise. A line that says so, or that is headed by a name, gives the form on record, which may keep a tag or linker. Residues count along the entry.
UniProt O00206: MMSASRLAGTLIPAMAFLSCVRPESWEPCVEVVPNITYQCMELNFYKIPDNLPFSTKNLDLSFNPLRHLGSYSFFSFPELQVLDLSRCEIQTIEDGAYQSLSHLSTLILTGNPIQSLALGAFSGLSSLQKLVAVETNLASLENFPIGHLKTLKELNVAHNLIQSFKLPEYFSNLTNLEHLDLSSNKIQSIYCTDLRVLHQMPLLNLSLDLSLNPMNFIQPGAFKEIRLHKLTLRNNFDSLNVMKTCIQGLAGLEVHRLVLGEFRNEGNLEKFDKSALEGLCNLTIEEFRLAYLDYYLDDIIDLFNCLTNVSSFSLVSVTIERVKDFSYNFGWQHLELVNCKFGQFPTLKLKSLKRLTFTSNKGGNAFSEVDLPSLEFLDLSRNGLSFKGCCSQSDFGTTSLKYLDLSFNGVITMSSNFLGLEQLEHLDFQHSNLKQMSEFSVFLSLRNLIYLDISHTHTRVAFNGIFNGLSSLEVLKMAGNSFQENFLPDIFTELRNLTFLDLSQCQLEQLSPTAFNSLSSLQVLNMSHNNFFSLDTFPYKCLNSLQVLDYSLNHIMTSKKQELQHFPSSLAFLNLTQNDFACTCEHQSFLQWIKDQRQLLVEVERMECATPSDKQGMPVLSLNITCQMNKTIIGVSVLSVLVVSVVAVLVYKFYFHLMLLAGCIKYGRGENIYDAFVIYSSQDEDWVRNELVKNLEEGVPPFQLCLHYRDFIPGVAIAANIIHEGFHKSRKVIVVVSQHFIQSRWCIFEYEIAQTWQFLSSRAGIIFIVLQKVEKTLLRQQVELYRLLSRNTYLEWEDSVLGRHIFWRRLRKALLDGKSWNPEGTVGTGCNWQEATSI
recombinant soluble TLR4 extracellular domain (amino acids 24-634), FLAG-tagged: residues 24-634 of O00206

[9] = target: TLR4 stably expressed on HEK293 cells (HEK/TLR4) (UniProt O00206); test: co-precipitation and/or FACS
[10] = target: TLR4 stably expressed on HEK293 cells (HEK/TLR4) (UniProt O00206); test: method not described at this place
[11] = target: T1, TLR4 stably expressed on HEK293 cells …; test: FACS of surface MD-2 on HEK293 cells stably expressing TLR4
[12] = target: recombinant soluble TLR4 extracellular domain (amino acids 24-634), FLAG-tagged (UniProt O00206); test: co-expression with TLR4ECD, harvested medium incubated 30 min at 37 C with [3H]LOS:sCD14, gel filtration
[13] = target: recombinant soluble TLR4 extracellular domain (amino acids 24-634), FLAG-tagged (UniProt O00206); test: co-expression in HEK293T cells, medium spiked with [3H]LOS:sCD14, Sephacryl S200 gel filtration
[14] = target: T1, TLR4 stably expressed on HEK293 cells …; test: co-precipitation and/or FACS
[15] = target: recombinant soluble TLR4 extracellular domain (amino acids 24-634), FLAG-tagged (UniProt O00206); test: co-expression in HEK293T cells, medium spiked with [3H]LOS:sCD14, Sephacryl S200 gel filtration; ([3H]LOS:MD-2/TLR4ECD)2 formed

B1: monomeric complex of wild-type (hexa-acylated) N. meningitidis LOS with wild-type human MD-2-His6 (ligand)
chain: QKQYWVCNSSDASISYTYCDKMQYPISINVNPCIELKRSKGLLHIFYIPRRDLKQLYFNLYITVNTMNLPKRKEVICRGSDDDYSFCRALKGETVNTTISFSFKGIKFSKGKYKCVVEAISGSPEEMLFCLEFVILHQPNSNHHHHHH
notes: mature; Mr ~25,000; Radiolabel (3H or 14C) is on the LOS; also called [^3H]LOS:MD-2; [^3H]LOS:MD-2-His6
binding [1]: binds
binding [2]: binds
binding [3]: binds
binding [4]: binds
binding [5]: binds
binding [6]: binds
binding [7]: binds

B2: soluble recombinant wild-type MD-2-His6 (not complexed to endotoxin), insect cell conditioned medium (protein, human)
chain: B1 chain
binding [8]: binds

B3: human MD-2 K125A.F126A double mutant (protein itself, not complexed to endotoxin) (protein, UniProt Q9Y6Y9 19-160, looked up, not shown: small tags and cut ends)
chain: QKQYWVCNSSDASISYTYCDKMQYPISINVNPCIELKRSKGLLHIFYIPRRDLKQLYFNLYITVNTMNLPKRKEVICRGSDDDYSFCRALKGETVNTTISFSFKGIAASKGKYKCVVEAISGSPEEMLFCLEFVILHQPNSN
binding [9]: binds
binding [10]: binds

B4: human MD-2 K122A mutant (protein, UniProt Q9Y6Y9 19-160, looked up, not shown: small tags and cut ends)
chain: B3 chain with K104A, A107K, A108F
binding [11]: binds
binding [12]: binds

B5: wild-type human MD-2-FLAG-His expressed in HEK293T or HEK293/TLR4 cells (protein, UniProt Q9Y6Y9 19-160, looked up, not shown: small tags and cut ends)
chain: B3 chain with A107K, A108F
binding [13]: binds
binding [12]: binds

B6: human MD-2 K132A mutant (protein, UniProt Q9Y6Y9 19-160, looked up, not shown: small tags and cut ends)
chain: B3 chain with A107K, A108F, K114A
binding [11]: binds
binding [12]: binds

B7: human MD-2 F121A.K122A double mutant (protein, UniProt Q9Y6Y9 19-160, looked up, not shown: small tags and cut ends)
chain: B3 chain with F103A, K104A, A107K, A108F
binding [14]: binds
binding [11]: binds
binding [12]: binds
binding [15]: binds

Reference: US20080125365A1 (UNIVERSITY OF IOWA RESEARCH FOUNDATION, published 2008)
